PubChem BioAssay AID1508597 – Cure First | 2020
Shown is a random part of the about 2,100 reagents, in one setting of the screen. 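Calls flag viability under 80% in either arm, not effects specific to rucaparib; the reference for percent is not stated.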 No sequences are given here. The record does not give: the 100% reference.

Test: 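Genes whose silencing sensitises or protects ovarian cancer cells against rucaparib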 (primary screen)
Cells: human ovarian carcinoma lines grown from tumours: OCI-P5x (papillary serous) and OCI-C5x (clear cell)
Reagent: siRNA pool against human genes, 1.25 pmol siRNA per well
Time to read-out: 72 h or 96 h, depending on the cell culture
Conditions: rucaparib 20 µM (about IC30) or vehicle, present until read-out
Rucaparib or vehicle: Rucaparib
Cell line: OCI-C5x (clear cell)
Measurement: 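Luminescent ATP-based viability assay read 72 or 96 h after transfection, depending on culture, given as normalised percent viability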
Scale: viability, normalised: higher = more viable cells remaining
Call rule: 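Active when normalised viability falls below 80 percent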
Calls: active = viability under 80%; inactive = viability 80% or more

EIF4A3, technical replicate 1 scored viability, normalised (%) = 15.2; active.
EIF4A3, technical replicate 2 showed viability, normalised (%) = 16.9; active.
With EIF4A3, technical replicate 3, the values are viability, normalised (%) = 17.3; active.
KALRN, technical replicate 1 showed viability, normalised (%) = 47.1; active.
For KALRN, technical replicate 2 the deposit lists viability, normalised (%) = 65.1; active.
With KALRN, technical replicate 3, the values are viability, normalised (%) = 58; active.

Reagents listed above marked active (6):
EIF4A3, technical replicate 1 | viability, normalised (%): 15.2; Outcome: active
EIF4A3, technical replicate 2 | viability, normalised (%): 16.9; Outcome: active
EIF4A3, technical replicate 3 | viability, normalised (%): 17.3; Outcome: active
KALRN, technical replicate 1 | viability, normalised (%): 47.1; Outcome: active
KALRN, technical replicate 2 | viability, normalised (%): 65.1; Outcome: active
KALRN, technical replicate 3 | viability, normalised (%): 58; Outcome: active

The results go on:
With TSSK4, technical replicate 1, the entry reads viability, normalised (%) = 59.7; active.
For TSSK4, technical replicate 2 the deposit lists viability, normalised (%) = 35.3; active.
TSSK4, technical replicate 3 showed viability, normalised (%) = 49.3; active.
With NEK1, technical replicate 1 the deposit lists viability, normalised (%) = 41.7; active.
NEK1, technical replicate 2 scored viability, normalised (%) = 64; active.
NEK1, technical replicate 3 scored viability, normalised (%) = 53.2; active.
